## Cleaved PARP after 72 h of treatment

Drugs:
LFM-A13: C/C(O)=C(\C#N)C(=O)Nc1cc(Br)ccc1Br at 10000 nM
NVP-TAE684: COc1cc(N2CCC(N3CCN(C)CC3)CC2)ccc1Nc1ncc(Cl)c(Nc2ccccc2S(=O)(=O)C(C)C)n1 at 400 nM
TCS401: O=C(O)C(=O)Nc1sc2c(c1C(=O)O)CCNC2 at 8330 nM
perifosine: CCCCCCCCCCCCCCCCCCOP(=O)([O-])OC1CC[N+](C)(C)CC1 at 2000 nM
lestaurtinib: C[C@]12O[C@H](C[C@]1(O)CO)n1c3ccccc3c3c4c(c5c6ccccc6n2c5c31)CNC4=O at 20 nM
tozasertib: Cc1cc(Nc2cc(N3CCN(C)CC3)nc(Sc3ccc(NC(=O)C4CC4)cc3)n2)n[nH]1 at 30 nM
VX-702: NC(=O)c1ccc(N(C(N)=O)c2c(F)cccc2F)nc1-c1ccc(F)cc1F at 2000 nM
nilotinib: Cc1cn(-c2cc(NC(=O)c3ccc(C)c(Nc4nccc(-c5cccnc5)n4)c3)cc(C(F)(F)F)c2)cn1 at 1000 nM
ZM336372: Cc1ccc(NC(=O)c2cccc(N(C)C)c2)cc1NC(=O)c1ccc(O)cc1 at 10000 nM

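The test systems are human melanoma cell lines, treated with a pair of drugs for 72 h and then stained and imaged. The read-out is the fraction of cleaved-PARP-positive nuclei, in % of that fraction in the DMSO control; 200 means twice the control level of this apoptosis marker. Every drug was used at one fixed concentration, the higher of two screened. These are primary screening values without error estimates. The marker varies much from line to line, for technical or biological reasons.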
Only some of the drugs and lines screened are listed, without regard to their results.
An entry leaves out what has no value listed here.

* tozasertib + VX-702 | COLO 829: 230; SK-MEL-5: 257; WM3619: 100; RPMI-7951: 201; WM1745: 137; LB2518-MEL: 75.5; COLO 800: 358; SK-MEL-28: 106
* ZM336372 + TCS401 | COLO 829: 65.9; SK-MEL-5: 156; WM3619: 182; RPMI-7951: 206; WM1745: 146; LB2518-MEL: 49.9; COLO 800: 200; SK-MEL-28: 51.0
* TCS401 + perifosine | COLO 829: 146; SK-MEL-5: 103; WM3619: 110; RPMI-7951: 125; LB2518-MEL: 170; COLO 800: 90.3; SK-MEL-28: 106
* tozasertib + LFM-A13 | COLO 829: 114; SK-MEL-5: 248; WM3619: 148; RPMI-7951: 200; LB2518-MEL: 58.2; COLO 800: 197; SK-MEL-28: 106
* tozasertib + perifosine | COLO 829: 45.7; SK-MEL-5: 248; WM3619: 86.1; RPMI-7951: 742; WM1745: 121; LB2518-MEL: 93.5; COLO 800: 167; SK-MEL-28: 294
* ZM336372 + NVP-TAE684 | COLO 829: 48.7; SK-MEL-5: 144; WM3619: 120; RPMI-7951: 105; WM1745: 218; LB2518-MEL: 67.1; COLO 800: 142; SK-MEL-28: 153
* VX-702 + perifosine | COLO 829: 60.8; SK-MEL-5: 64.8; WM3619: 200; RPMI-7951: 422; WM1745: 119; LB2518-MEL: 184; COLO 800: 105; SK-MEL-28: 75.3
* nilotinib + lestaurtinib | COLO 829: 56.6; SK-MEL-5: 268; WM3619: 267; RPMI-7951: 188; WM1745: 155; LB2518-MEL: 589; COLO 800: 98.5; SK-MEL-28: 49.1
* NVP-TAE684 + tozasertib | COLO 829: 176; SK-MEL-5: 76.0; WM3619: 110; RPMI-7951: 151; LB2518-MEL: 63.6; COLO 800: 266; SK-MEL-28: 88.2
* VX-702 + lestaurtinib | COLO 829: 102; SK-MEL-5: 252; WM3619: 117; RPMI-7951: 87.2; WM1745: 114; LB2518-MEL: 76.0; COLO 800: 60.3; SK-MEL-28: 135
* perifosine + LFM-A13 | COLO 829: 73.2; SK-MEL-5: 122; WM3619: 95.5; RPMI-7951: 101; LB2518-MEL: 158; COLO 800: 230; SK-MEL-28: 117
* VX-702 + NVP-TAE684 | COLO 829: 60.5; SK-MEL-5: 145; WM3619: 96.5; RPMI-7951: 92.8; LB2518-MEL: 196; COLO 800: 188; SK-MEL-28: 51.1
* tozasertib + ZM336372 | COLO 829: 49.4; SK-MEL-5: 174; WM3619: 101; RPMI-7951: 283; WM1745: 217; LB2518-MEL: 130; COLO 800: 368; SK-MEL-28: 297
* LFM-A13 + VX-702 | COLO 829: 162; SK-MEL-5: 111; WM3619: 89.1; RPMI-7951: 24.2; LB2518-MEL: 114; COLO 800: 48.2; SK-MEL-28: 184
* LFM-A13 + ZM336372 | COLO 829: 50.9; SK-MEL-5: 1130; WM3619: 119; RPMI-7951: 89.2; WM1745: 141; LB2518-MEL: 75.5; COLO 800: 87.1; SK-MEL-28: 188
* perifosine + nilotinib | COLO 829: 103; SK-MEL-5: 55.1; WM3619: 84.9; RPMI-7951: 383; WM1745: 109; LB2518-MEL: 128; COLO 800: 139; SK-MEL-28: 179
* NVP-TAE684 + LFM-A13 | COLO 829: 121; SK-MEL-5: 219; WM3619: 104; RPMI-7951: 84.8; WM1745: 119; LB2518-MEL: 61.8; COLO 800: 101; SK-MEL-28: 104
* lestaurtinib + TCS401 | COLO 829: 106; SK-MEL-5: 84.9; WM3619: 114; RPMI-7951: 68.5; LB2518-MEL: 76.4; COLO 800: 78.2; SK-MEL-28: 154
* lestaurtinib + ZM336372 | COLO 829: 236; SK-MEL-5: 403; WM3619: 161; RPMI-7951: 41.6; WM1745: 96.2; LB2518-MEL: 235; COLO 800: 128; SK-MEL-28: 93.1
* TCS401 + VX-702 | COLO 829: 128; SK-MEL-5: 45.5; WM3619: 96.4; RPMI-7951: 70.7; LB2518-MEL: 91.5; COLO 800: 143; SK-MEL-28: 129
* TCS401 + LFM-A13 | COLO 829: 71.7; SK-MEL-5: 107; WM3619: 100; RPMI-7951: 62.0; WM1745: 135; LB2518-MEL: 53.2; COLO 800: 165; SK-MEL-28: 105
* NVP-TAE684 + TCS401 | COLO 829: 50.7; SK-MEL-5: 64.8; WM3619: 111; RPMI-7951: 93.8; WM1745: 222; COLO 800: 124; SK-MEL-28: 124
* nilotinib + LFM-A13 | COLO 829: 56.5; SK-MEL-5: 72.0; WM3619: 99.9; RPMI-7951: 133; LB2518-MEL: 69.0; COLO 800: 236; SK-MEL-28: 126
* TCS401 + tozasertib | COLO 829: 158; SK-MEL-5: 496; WM3619: 101; RPMI-7951: 232; LB2518-MEL: 118; COLO 800: 76.9; SK-MEL-28: 86.0
* tozasertib + nilotinib | COLO 829: 169; SK-MEL-5: 154; WM3619: 112; RPMI-7951: 73.8; WM1745: 142; LB2518-MEL: 183; COLO 800: 26.3; SK-MEL-28: 176
* tozasertib + lestaurtinib | COLO 829: 143; SK-MEL-5: 258; WM3619: 130; RPMI-7951: 74.2; WM1745: 141; LB2518-MEL: 207; COLO 800: 143; SK-MEL-28: 153
* NVP-TAE684 + nilotinib | COLO 829: 148; SK-MEL-5: 175; WM3619: 100; RPMI-7951: 111; LB2518-MEL: 231; COLO 800: 165; SK-MEL-28: 96.8
* ZM336372 + perifosine | COLO 829: 168; SK-MEL-5: 36.2; WM3619: 92.7; RPMI-7951: 242; WM1745: 111; LB2518-MEL: 74.2; COLO 800: 90.1; SK-MEL-28: 117
* nilotinib + ZM336372 | COLO 829: 97.9; SK-MEL-5: 109; WM3619: 135; RPMI-7951: 96.0; WM1745: 109; LB2518-MEL: 203; COLO 800: 127; SK-MEL-28: 84.3
* lestaurtinib + LFM-A13 | COLO 829: 92.7; SK-MEL-5: 158; WM3619: 132; RPMI-7951: 127; LB2518-MEL: 165; COLO 800: 69.0; SK-MEL-28: 245
* ZM336372 + VX-702 | COLO 829: 63.7; SK-MEL-5: 70.6; WM3619: 101; RPMI-7951: 260; WM1745: 162; LB2518-MEL: 102; COLO 800: 97.2; SK-MEL-28: 335

Source: doi:10.1371/journal.pone.0140310, primary screening data, rounded.